Assay results taken from article PMC5239461.
These are yes or no findings as the source states them, for the method shown. Binding seen in cells or lysates may run through a third protein. Some entries that bind do so weakly or less than the wild type.

Sequences of proteins named here, by UniProt entry; tags and fusion partners are left off.
UniProt P40763: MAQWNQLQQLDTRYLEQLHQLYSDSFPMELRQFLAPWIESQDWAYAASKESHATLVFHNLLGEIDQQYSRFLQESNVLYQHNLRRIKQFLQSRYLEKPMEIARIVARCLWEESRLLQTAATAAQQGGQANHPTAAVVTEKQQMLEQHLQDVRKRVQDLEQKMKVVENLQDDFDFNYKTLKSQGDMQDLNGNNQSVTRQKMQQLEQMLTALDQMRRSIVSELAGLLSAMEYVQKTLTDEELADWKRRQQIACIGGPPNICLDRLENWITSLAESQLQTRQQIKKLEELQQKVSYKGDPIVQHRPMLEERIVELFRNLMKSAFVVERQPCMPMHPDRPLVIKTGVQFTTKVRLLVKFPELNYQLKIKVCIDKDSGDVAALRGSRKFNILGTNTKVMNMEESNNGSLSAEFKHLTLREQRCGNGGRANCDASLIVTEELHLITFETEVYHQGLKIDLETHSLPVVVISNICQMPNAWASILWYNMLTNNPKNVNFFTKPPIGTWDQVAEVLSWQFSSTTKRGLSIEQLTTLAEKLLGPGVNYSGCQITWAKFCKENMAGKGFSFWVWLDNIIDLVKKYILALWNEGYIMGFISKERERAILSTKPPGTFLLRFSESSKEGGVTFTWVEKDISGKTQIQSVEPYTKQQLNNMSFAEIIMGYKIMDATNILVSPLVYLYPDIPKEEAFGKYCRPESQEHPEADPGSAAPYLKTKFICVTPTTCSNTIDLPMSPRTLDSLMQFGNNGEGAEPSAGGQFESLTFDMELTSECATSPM
UniProt P42224: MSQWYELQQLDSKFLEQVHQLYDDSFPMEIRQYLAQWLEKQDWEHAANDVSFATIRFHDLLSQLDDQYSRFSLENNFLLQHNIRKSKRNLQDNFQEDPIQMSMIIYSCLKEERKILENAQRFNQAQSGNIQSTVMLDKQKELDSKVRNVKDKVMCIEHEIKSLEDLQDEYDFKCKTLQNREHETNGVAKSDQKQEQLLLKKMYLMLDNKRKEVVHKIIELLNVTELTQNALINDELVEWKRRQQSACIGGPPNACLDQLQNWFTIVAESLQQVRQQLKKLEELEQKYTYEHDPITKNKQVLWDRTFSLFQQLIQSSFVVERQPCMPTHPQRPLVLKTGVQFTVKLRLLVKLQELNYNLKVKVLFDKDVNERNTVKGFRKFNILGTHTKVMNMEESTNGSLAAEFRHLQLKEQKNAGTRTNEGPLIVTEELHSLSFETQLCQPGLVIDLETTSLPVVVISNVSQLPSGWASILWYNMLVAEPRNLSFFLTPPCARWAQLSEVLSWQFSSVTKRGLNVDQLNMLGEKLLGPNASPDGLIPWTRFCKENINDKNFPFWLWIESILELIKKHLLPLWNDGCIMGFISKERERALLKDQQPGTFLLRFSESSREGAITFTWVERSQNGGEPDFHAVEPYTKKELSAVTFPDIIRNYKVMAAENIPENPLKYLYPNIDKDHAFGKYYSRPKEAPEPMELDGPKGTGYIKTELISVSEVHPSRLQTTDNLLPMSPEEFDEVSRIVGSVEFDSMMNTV

Biological target: STAT3 (human (endogenous in CRC cell lines)) (UniProt P40763)
Assay: co-IP; endogenous STAT3 precipitated from CRC cell line lysates (1 mg protein) with 10 ug anti-STAT3 (sc-482) on Protein A Sepharose, overnight at 4°C, in 10 mM HEPES pH 7.5, 1 mM EDTA (5 volumes of IP buffer; low salt); cells with or without IL-6 (10 ng/ml) or IFNγ (2.5 ng/ml) for half an hour; Western blot with anti-STAT1 and anti-STAT3

STAT1 (from UniProt P42224 1-750)
binding: binds weakly
